Assay results from patent US6492328B2, “Novispirins: antimicrobial peptides” (priority 2000, dated 2002).
Part of at least one peptide drawing is inferred or uncertain, most often the ends. Where no end group is shown, it is not given here.

Experiments:
S. maltophilia 18CP = test: Novispirins vs S. maltophilia (Table 5); assay type: cell-based, Stenotrophomonas maltophilia; set-up: unit not given here; conditions: strain 18CP
Experimental: (§1) Microorganisms used in this study included 13 different Pseudomonas aeruginosa strains. The AML-654 and LZ-1 strains are recent clinical isolates from the UCLA Clinical Microbiology laboratory. Nine strains (5 mucoid, 4 nonmucoid) were recent CF isolates provided by Dr. Lisa Saiman. All of the P. aeruginosa strains except PAO-1 strain were resistant to multiple conventional antibiotics, and all 9 CF isolates were resistant to 250 μg/ml of tobramycin. We have also tested 5 strains each of Stenotrophomonas maltophilia and Burkholderia cepacia from CF patients (also provided by Dr. Lisa Saiman), two strains of Escherichia coli (ML-35p and DH-5a), and single strains of Staphylococcus aureus[MRSA (methicillin-resistant S. aureus)] and C. albicans.

S. maltophilia 36CN = test: Novispirins vs S. maltophilia (Table 5); assay type: cell-based, Stenotrophomonas maltophilia; set-up: unit not given here; conditions: strain 36CN
Experimental: as §1

S. maltophilia 42CK = test: Novispirins vs S. maltophilia (Table 5); assay type: cell-based, Stenotrophomonas maltophilia; set-up: unit not given here; conditions: strain 42CK
Experimental: as §1

S. maltophilia 47CG = test: Novispirins vs S. maltophilia (Table 5); assay type: cell-based, Stenotrophomonas maltophilia; set-up: unit not given here; conditions: strain 47CG
Experimental: as §1

S. maltophilia 51Cl = test: Novispirins vs S. maltophilia (Table 5); assay type: cell-based, Stenotrophomonas maltophilia; set-up: unit not given here; conditions: strain 51Cl
Experimental: as §1

E. coli = test: Two stage radial diffusion assay with 10 mM HEPES, G10 variants (Table 8); assay type: cell-based; conditions: mean ± SEM, n = 3, in µg/mL
From the text: (§2) Amidation (—NH2) of the carboxy terminus in some of the novispirin G10 variants was designed to increase overall positive charge. The sequences of these peptides and their net charge is shown below in Table 7. The fractional (and pH dependent) charge on histidine12 was ignored in this calculation.
(§3) In Table 8, MIC signifies minimal inhibitory concentration, as determined by two stage radial diffusion assays. […] Shaded boxes show results that represent a significant improvement of activity (p<0.01 by t-test), relative to novispirin G10. […] None of the above G10 novispirin derivatives caused any hemolysis of human red blood cells, even when tested at 80 μg/ml. It is likely that other cationic amino acids (e.g., lysine, ornithine, etc) could also be used in position 12 to achieve better activity in the presence of calcium and magnesium ions.

K. pneumoniae = test: as above; assay type: cell-based; conditions: mean ± SEM, n = 3, in µg/mL
From the text: as §2, §3

P. aeruginosa = test: as above; assay type: cell-based; conditions: mean ± SEM, n = 3, in µg/mL
From the text: as §2, §3

S. aureus = test: as above; assay type: cell-based; conditions: mean ± SEM, n = 3, in µg/mL
From the text: as §2, §3

P. aeruginosa MR3007 = test: Kinetics of microbicidal activity; assay type: cell-based, Pseudomonas aeruginosa; conditions: 5 μg/ml peptide, PBS with 1 % v/v trypticase soy broth

Sequence	activity vs S. maltophilia (S. maltophilia 18CP; +100 mM NaCl)	activity vs S. maltophilia (S. maltophilia 18CP; +175 mM NaCl)	activity vs S. maltophilia (S. maltophilia 18CP; LOW SALT CONDITIONS)	activity vs S. maltophilia (S. maltophilia 36CN; +100 mM NaCl)	activity vs S. maltophilia (S. maltophilia 36CN; +175 mM NaCl)	activity vs S. maltophilia (S. maltophilia 36CN; LOW SALT CONDITIONS)	activity vs S. maltophilia (S. maltophilia 42CK; +100 mM NaCl)	activity vs S. maltophilia (S. maltophilia 42CK; +175 mM NaCl)	activity vs S. maltophilia (S. maltophilia 42CK; LOW SALT CONDITIONS)	activity vs S. maltophilia (S. maltophilia 47CG; +100 mM NaCl)	activity vs S. maltophilia (S. maltophilia 47CG; +175 mM NaCl)	activity vs S. maltophilia (S. maltophilia 47CG; LOW SALT CONDITIONS)	activity vs S. maltophilia (S. maltophilia 51Cl; +100 mM NaCl)	activity vs S. maltophilia (S. maltophilia 51Cl; +175 mM NaCl)	activity vs S. maltophilia (S. maltophilia 51Cl; LOW SALT CONDITIONS)	also measured
KNLRRIIRKIIHIIKKYG [Ovispirin, K N L R R I I R K I I H I I K K Y G]	0.88	0.91	1.46	0.93	0.91	1.01	1.24	2.03	1.73	0.54	0.77	0.07	2.20	1.67	1.60	MIC (E. coli; +1 mM Ca): 6.97 ± 0.42; MIC (E. coli; +1 mM Mg): 6.99 ± 0.11; MIC (E. coli; No Ca/Mg): 0.8 ± 0.14; MIC (K. pneumoniae; +1 mM Ca): 22.1 ± 1.8; MIC (K. pneumoniae; +1 mM Mg): 7.18 ± 0.5; MIC (K. pneumoniae; No Ca/Mg): 2.31 ± 0.02; MIC (P. aeruginosa; +1 mM Ca): 22.1 ± 1.78; MIC (P. aeruginosa; +1 mM Mg): 7.18 ± 0.51; MIC (P. aeruginosa; No Ca/Mg): 2.31 ± 0.21; MIC (S. aureus; +1 mM Ca): 6.15 ± 0.12; MIC (S. aureus; +1 mM Mg): 5.93 ± 0.19; MIC (S. aureus; No Ca/Mg): 0.49 ± 0.05; rapid fall in survival (P. aeruginosa MR3007): 2-3 log10; time by which no surviving bacteria were recovered (P. aeruginosa MR3007): ≤ 30 min
KNLRRIIRKTIHIIKKYG [T10 Novispirin, K N L R R I I R K T I H I I K K Y G]	0.88	2.08	0.88	0.48	0.53	0.32	1.27	1.25	0.77	0.75	0.70	0.21	5.02	15.5	0.97	
